Data: paper PMC6611794 (Nature Communications, 2019)

How the values were obtained:
[1] = general procedure: Fmoc solid-phase peptide synthesis; TentaGel beads, photocleavable linker; HATU/HOAt/i-Pr2NEt in NMP; DIC/DMAP for esterification; PyBOP/2,4,6-collidine fo; conditions: whole synthesis, overall from 29 over 26 steps, by MS and UHPLC, scale of the general procedure several milligram scale of the general procedures
[2] = general procedure: Fmoc solid-phase peptide synthesis; Fmoc-L-Glu(Wang resin)-OAllyl (0.45 or 0.746 mmol/g); TentaGel Macrobeads with photocleavable linker for OBOC; HATU/HOAt/i-Pr2NEt in NMP; DIC/DMAP for esterification; PyBOP/2,4,6-collidine fo; conditions: whole synthesis

lysocin E
crude yield [1]: 5.1% | crude mass [2]: 0.25 µg
